One compound from patent publication US4130637A, “Anti-plaque agents” (Colgate-Palmolive Company, priority 1977, dated 1978) can be followed below.

Assay in all cases: Minimum inhibitory concentration, test tube serial dilution test
For assay [1], the system named is A. niger. The format is cell-based. To be noted: Aspergillus niger, read-out: Minimum Inhibitory Concentration. How it is done: (§1) The antimicrobial nature of the instant novel nontoxic compounds was shown by a standard test tube serial dilution test in which an appropriate number of test tubes of broth containing decreasing concentration of the test agent was innoculated with the test organism (0.1% in 95% ethyl alcohol). After a suitable period of incubation, the tubes were examined for the presence or absence of growth. The activity of the test agent was the lowest concentration which inhibited the growth of the organism and is expressed as the minimal inhibitory concentration in μgm/ml.

For assay [2], the system named is C. albicans. The format is cell-based. To be noted: Candida albicans, read-out: Minimum Inhibitory Concentration. How it is done: as §1
In assay [3] the test system is Ps. aeruginosa. In kind it is cell-based. To be noted: Pseudomonas aeruginosa, read-out: Minimum Inhibitory Concentration. The procedure: as §1
The subject of assay [4] is Staphylococcus aureus. The format is cell-based. As to conditions: read-out: Minimum Inhibitory Concentration. How it is done:
as §1

The test system of assay [5] is Strep. mutans. The format is cell-based. To be noted: Streptococcus mutans, read-out: Minimum Inhibitory Concentration. How it is done:
as §1

The test system of assay [6] is Strep. sanguis. The format is cell-based, Streptococcus sanguis. To be noted: Streptococcus, read-out: Minimum Inhibitory Concentration. How it is done:
as §1

For assay [7], the system named is A. naeslundi. The format is cell-based, Actinomycetis naeslundii. To be noted: Actinomyces naeslundii, read-out: Minimum Inhibitory Concentration. The procedure: as §1
Assay [8] has as its system E. Coli. The format is cell-based. As to conditions: Escherichia coli, Gram Negative.
Text: More specifically they are particularly effective against gram positive organisms such as Staphylococcus aureus, Streptococcus sanguis and mutans and Actinomycetis naeslundii; gram negative organisms such as Pseudomonas aeruginosa and Escherichia coli; and against fungi, such as Candida albicans (yeast) and Trichophyton mentogrophytes and Aspergillus niger (mold).
as §1, with “μgm/ml. As shown in the following table of anitmicrobial data, the betaines of this invention are active against a variety of micro-organisms with maximum activity when the higher alkyl group has 14-16 carbons.” for “μgm/ml.”

The subject of assay [9] is T. ment. In kind it is cell-based, Trichophyton mentogrophytes. As to conditions: Trichophyton, read-out: Minimum Inhibitory Concentration. The procedure:
as §1

In the case of `CC(C)(C)CC(C)(C)c1ccc(OCCOCC[N+](C)(C)Cc2ccccc2)cc1` [Benzethonium Chloride, benzethonium chloride, reference compound], the MIC in assay [1] was 50 µg/mL; in [2], 1.56 µg/mL; in [3], 50 µg/mL; in assay [4] it was 0.78 µg/mL; in assay [5], 0.78 µg/mL; in [6], 3.12 µg/mL. For the same compound, the MIC in assay [7] is 0.39 µg/mL; in assay [8] it was 100 µg/mL; in assay [9], 12.5 µg/mL.
